{"source": "patent US7150972B2", "about": "“Sterol carrier protein-2 from the mosquito, Aedes aegypti” (Wisconsin Alumni Research Foundation, priority 2003, dated 2006)", "origin": "cited, not measured here", "system": "SCP-2 mRNA", "conditions": "injection into roosters, Pfeifer et al., 1993a; cited from earlier work", "note": "At least one compound was matched to its structure with a doubt left.", "data": [{"smiles": "C[C@]12CC[C@@H]3c4ccc(O)cc4CC[C@H]3[C@@H]1CC[C@@H]2O", "note": "[estradiol]", "values": [{"measurement": "increase of SCP-2 mRNA", "value": 2, "unit": "fold"}]}]}
